In patent US20220411531A1 (SUMGEN MAB BEIJING BIOTECH, published 2022):
Substitutions are numbered along the chain they refer to. Results are given in words; binding and its absence hold for the method and conditions named. Some entries that bind do so weakly or less than the wild type. Blank lines part the entries; values can stand above or below the binder they belong to.

Amino acid sequences for entries named in this document (tags omitted). A change or cut given only in a name is not applied to a line headed by its entry. Chains listed by the source or under a name are the forms on record and can include a tag or linker.
AXL-His (Sino Biological Inc., 6x His labels, molecular weight 47.5 Kda) (P30530, form named): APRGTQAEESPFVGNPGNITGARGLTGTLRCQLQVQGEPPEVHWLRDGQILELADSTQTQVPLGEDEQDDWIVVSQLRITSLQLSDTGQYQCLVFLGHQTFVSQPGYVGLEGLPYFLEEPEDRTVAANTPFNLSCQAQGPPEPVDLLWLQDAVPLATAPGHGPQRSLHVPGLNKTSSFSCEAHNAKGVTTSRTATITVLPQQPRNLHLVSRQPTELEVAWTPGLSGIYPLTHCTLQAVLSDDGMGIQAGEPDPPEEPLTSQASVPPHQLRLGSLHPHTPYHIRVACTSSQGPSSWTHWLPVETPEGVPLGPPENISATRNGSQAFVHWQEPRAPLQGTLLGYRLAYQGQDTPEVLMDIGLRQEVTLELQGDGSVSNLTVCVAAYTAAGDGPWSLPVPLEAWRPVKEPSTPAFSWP

Columns and labels:
[1] = target: AXL-His (Sino Biological Inc., 6x His labels, molecular weight 47.5 Kda) (UniProt P30530); assay: ELISA, AXL-His coated at 1 ug/ml
[2] = target: AXL-His (Sino Biological Inc., 6x His labels, molecular weight 47.5 Kda) (UniProt P30530); assay: specificity ELISA, AXL-His coated at 1 ug/ml
[3] = target: AXL-His (Sino Biological Inc., 6x His labels, molecular weight 47.5 Kda) (UniProt P30530); assay: ELISA, AXL-His coated at 1 µg/ml, OD450 [panel A]
[4] = target: AXL-His (Sino Biological Inc., 6x His labels, molecular weight 47.5 Kda) (UniProt P30530); assay: ELISA, AXL-His coated at 1 µg/ml, anti-human IgG Fab-HRP, OD450
[5] = target: AXL on the surfaces of human tumour cells (A549, MDA-MB-231, 786-O) (human) (UniProt P30530); assay: flow cytometry on MDA-MB-231 and 786-O cells
[6] = target: AXL-His (Sino Biological Inc., 6x His labels, molecular weight 47.5 Kda) (UniProt P30530); assay: ELISA, AXL-His coated at 1 µg/ml, OD450 [panel B]
[7] = target: AXL on the surfaces of human tumour cells (A549, MDA-MB-231, 786-O) (human) (UniProt P30530); assay: flow cytometry on 786-O cells, PE anti-human IgG
[8] = target: AXL on the surfaces of human tumour cells (A549, MDA-MB-231, 786-O) (human) (UniProt P30530); assay: flow cytometry on MDA-MB-231 cells, PE anti-human IgG

binding [1]: binds
binding [2]: binds
binding [3]: binds
binding [4]: binds
B1: antibody 6G12M11 (antibody, human IgG1, kappa, V domains shown)
VH: QVQLVQSGPGLVKPSQSLSLTCAVTGFSISSGYYWNWIRQFPGQKLEWMGYRSYDGSNNYNPSLKNRISITRDTSKNQFFLKLNSVTSEDTATYYCARGWLLHYTMDYWGQGTTVTVSS
VL: EIVMTQSPSSVSVTLGQSASISCRSSRSLLHSNGFTYLYWYLQKPGQSPQLLIYQMSNLASGVPDRFSGSGSGTDFTLKISRVEAEDVGVYYCGQNLELPLTFGGGTKLEIKR

binding [2]: binds
binding [5]: binds
binding [6]: binds
binding [7]: binds
binding [8]: binds
binding [4]: binds
B2: antibody 6G12M31 (antibody, V domains shown)
VH: B1 VH with A23S, N61D
VL: DIVMTQSPSSVSVTLGQSASISCRSSRSLLHSNGFTYLYWYLQKPGQSPQLLIYQMSNLASGVPDRFSGSGSGTDFTLKISRVEAEDVGVYYCGQNLELPLTFGGGTKLEIK

binding [2]: binds
binding [6]: binds
binding [4]: binds
B3: antibody 6G12M41 (antibody, V domains shown)
VH: B1 VH with A23S, N61G
VL: B2 VL

binding [1]: binds
binding [2]: binds
binding [3]: binds
binding [6]: binds
binding [4]: binds
B4: antibody 6G12M21 (antibody, human IgG1, kappa, V domains shown)
VH: B1 VH with A23S
VL: B1 VL with E1D
